Measured values from PubChem BioAssay AID1508600 (Functional Genomics Laboratory (NCATS/FGL), 2020).
Hit rate of the full screen: of about 53,000 sequences, about 3,700 (7%) were called active.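 The calls were made as follows: active = gene knockdowns whose robust z-score for IL-1 alpha signal is at least 2 or at most -2, so actives lie on both sides; inactive = the rest.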 The list shows a part of the results.

Experiment: Components of the Cytosolic LPS Sensing Pathway: Gene Identification via Genome-wide siRNA Screen;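 also: robust z of the log signal after scaling to non-targeting control siRNA wells of the plate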
Conditions: RAW264.7 macrophages, IL-1a HTRF, actives lie on both sides, screened at 100 nM (by protocol), cells primed 5 h with Pam3CSK4 first
How it was run: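 Knockdown: 100 nM siRNA, 48h, RAW264.7. Stimulation: Pam3CSK4 5 h, then LipidA via TransIT-TKO 24 h. Output: supernatant IL-1a HTRF, negative-control-normalized, log robust z-score; viability by CellTiter-Glo.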

Row | Sequence | z-score
1 | GCCUAUCACGAGCUAUGAUTT against Shkbp1 | inactive: -1.5
2 | GGAGAUACGCAGAGUUUGATT against Sgk3 | inactive: -0.0382
3 | CCUUCGUCGACAUUGCUGUTT against Zfp282 | inactive: -0.619
4 | CGUGAAAAAGUUAGCAAGUTT against Tars2 | inactive: 0.198
5 | GGACAUGCUGGGUGAAGAATT against Ikbkg | inactive: -1.84
6 | GCCGGUGAAGACCAUUCACTT against Paox | inactive: 0.571
7 | GGAUCUCGCUGGCAAUAAUTT against Gpr45 | inactive: -0.222
8 | GGGACAUACAUAUCCUCCUTT against Cwc25 | inactive: -1.47
9 | GGAGGUCUGUCUGGAUCCATT against Cxcl5 | inactive: -0.698
10 | GGUCAAAGGACAAAGAUAATT against Atg7 | inactive: -1.35
11 | GCCUGUCACCUGUAGCAACTT against Krtap12-1 | inactive: -0.434
12 | GGGUUCAGCAUACCCUUCATT against Vmn1r227 | inactive: 0.522
13 | GGCUGUUACAUUCUAUAUUTT against Kif5c | inactive: -0.13
14 | GCAUCAUUCGUUAUGCAAUTT against Itgax | inactive: 0.281
15 | CGUGAUAGAUGGAAGCUACTT against Zcchc13 | inactive: -0.155
16 | CCAUACAGAUCGCACCCUGTT against Txndc15 | active: -2.15
17 | ACUGUUAACCAAGGAGAAATT against Ghrhr | inactive: -0.533
18 | GGAAAUCUCUGGGAUUGUATT against Rpa3 | inactive: -0.482
19 | GCAAUUCAGCUUAUAAGCATT against Mterf2 | active: -2.79
20 | GGACAAGAGUGAGAAGGAATT against Yaf2 | inactive: -1.5
21 | GCGAUAUCUCAACUUCCCGTT against Fchsd1 | inactive: 0.541
22 | GGUGUAUAUCAACAUCAGUTT against Inpp5k | inactive: 0.454

Single values from the entries so far:
GCAUCAUUCGUUAUGCAAUTT against Itgax | z-score: inactive: 0.281
GGAAAUCUCUGGGAUUGUATT against Rpa3 | z-score: inactive: -0.482

4 records picked at random from the list so far, as already listed:
Row | Sequence | z-score
22 | GGUGUAUAUCAACAUCAGUTT against Inpp5k | inactive: 0.454
21 | GCGAUAUCUCAACUUCCCGTT against Fchsd1 | inactive: 0.541
16 | CCAUACAGAUCGCACCCUGTT against Txndc15 | active: -2.15
8 | GGGACAUACAUAUCCUCCUTT against Cwc25 | inactive: -1.47

(next part)

Row | Sequence | z-score
23 | GAAUGUGUUAUUCCCAAAATT against Olfr784 | inactive: -0.119
24 | GCGCAACUGUGUCCUGUUATT against Olfr133 | inactive: -0.931
25 | GGAGCCUCACUGAAUGUCUTT against Ankrd10 | inactive: -0.736
26 | GGAAAAAAAUGCUGUAUACTT against Insm1 | inactive: -0.599
27 | GGUAUUCAAUUGAUCGUCATT against Cdh11 | inactive: 1.35
28 | GGGCGGAGAAUGAAGCUUUTT against Gpatch3 | inactive: 1
29 | GGUAUUCUUUGAAGAAAACTT against Tbc1d14 | inactive: 1.17
30 | GGUUAUGAUGGGACUUCUCTT against Tmem37 | inactive: -1.34
31 | GGAUUACCACAGAGCUUCATT against Rhox3a | inactive: -1.38
32 | GGGUUGAUCCCUUUGAUUCTT against Pld4 | inactive: -0.268
33 | CGGCACUCAACUCAGAUACTT against Commd1 | inactive: 0.423
34 | CCGAUUCUGAGAGUAACAATT against Alx4 | inactive: 0.00497
35 | GGAAAAAUGGUCUGUAAAATT against Adck2 | inactive: 0.508
36 | CCCAUGCACAUCAUGAGAATT against 4931429L15Rik | inactive: -1.16
37 | GCAAUGCGACGUGCUCUAUTT against Trim67 | inactive: 0.136
38 | CCCACUACGUCAUACCACUTT against Olfr605 | inactive: -0.888
39 | GGGUUGAUUGACAGGUAAATT against H2-Q10 | inactive: 0.92
40 | CCAUGUGGUGAGGACUUCATT against Pkp4 | inactive: 1.07
41 | GGGUAUUCAUGAUGUCUUUTT against Kctd6 | inactive: 1.39
42 | UUGUCCUCACCUGUUUGUATT against Olfr748 | inactive: -0.784
43 | GCAGUGAAGUCCAAGUUAGTT against Pold3 | inactive: -0.456
44 | GGCUUAUCAUAUGAAGACATT against Aplp2 | active: 2.33

Row | Sequence | z-score
45 | GGUUCAUGUCAUCUUUAACTT against Calr | inactive: -1.21
46 | GGAACUUGGAAUUUAGUUGTT against Pla2g4b | inactive: 1.43
47 | GGAAUCGGAGUAGAAUCCGTT against Tcfl5 | inactive: 0.694
48 | GGCUUUCAUAUUCUGGAAUTT against Gabrb1 | inactive: 0.12
49 | GCAAGGUGUUCUGACCCAUTT against Rps6 | inactive: -0.498
50 | GCCUUGCUGUCAAACCACUTT against Krtap9-1 | inactive: 0.998
51 | GGGACUUCAAUCACAUCAATT against Rpl9 | inactive: 0.549
52 | GCUCUGGAACAAUUCCUGCTT against Cstl1 | inactive: 0.393
53 | GGAAUUAUCUCACGGCCAGTT against Il17c | inactive: 0.113
54 | GGCCGAGAAGAUCAAAGCATT against Mrpl12 | inactive: -0.116
55 | GGCCUUUAUUGACUCCAAGTT against Syn3 | inactive: -0.851
56 | AUGUCUCAGGUGCCUAAGGTT against Pramel26 | inactive: 0.517
57 | AGACUCUCUCUUGCACUAGTT against Retnla | inactive: -0.754
58 | GCUAGAUAAACUCUCUCAATT against Cxcr5 | inactive: 0.73
59 | GGUCUUUCCAGAACAAAAATT against Rpa2 | inactive: -1.87
60 | GGAUCAAAGCCGUUCUUUUTT against Foxq1 | inactive: 0.143
61 | GGACAAAAGUGAUGUUAAATT against Gabrb2 | inactive: 0.567
62 | GGCUUCUGUUUUUAUUUGUTT against Zbtb7c | inactive: 1.07
63 | CGCCUUGCCAAUAAGUGAATT against Ostf1 | inactive: -0.198
64 | GCCACACAGUGUGAUCCAATT against Nrip2 | inactive: -1.33
65 | GGCUUUGAGAGUUUGUCACTT against 2410004B18Rik | inactive: -1.62
66 | CCUCUAGUUGUCCCUGAAATT against F12 | inactive: 0.883

Row | Sequence | z-score
67 | CCACUUCUACAUACUUAAUTT against Plau | inactive: 0.62
68 | GGCAUUGAGAUGCUGGAAATT against Trappc4 | active: 2.46
69 | CCAGUUUAAGAGGAUUAUCTT against Ttc3 | inactive: 0.681
70 | GGAGGUAUCAGGUACCAACTT against Cpne6 | inactive: 1.21
71 | GGAAACUCGAAAUAUAUCUTT against Lancl3 | inactive: 1.56
72 | GGUCUCUGUACUUUGACUGTT against Cldn19 | inactive: -1.2
73 | GGACAAGAAGCCACUGACATT against Arrb1 | active: 2.2
74 | GGCACUUAAAAGCCGUAUUTT against Naif1 | inactive: -1.25
75 | GCCACGAUGUGUGGAAAUUTT against Cfh | inactive: 0.278
76 | GGGUCAGUUUUUACAUUUUTT against Cxcl14 | inactive: 0.882
77 | GAUGGCUUGUGAAAUACCATT against Hat1 | inactive: 1.58
78 | GGAUGUAGACUUUAUCAAUTT against Glipr1l2 | inactive: 1.23
79 | GGUUUUUCUUCUGCUGGUGTT against Olfr1256 | inactive: 1.64
80 | GGAUCGUAGAACACCCUUCTT against Robo2 | inactive: -0.00164
81 | CGAUAUCUCGAAAAUUUCATT against C1galt1c1 | inactive: 0.955
82 | GGAAAACGGAAAAGACAUCTT against Calr3 | inactive: 0.584
83 | CCCGAAGUCCUGUUUUGCATT against Olig3 | inactive: 0.839
84 | GGAUGCUGGUUCUUUUGGUTT against Gdpd4 | inactive: -0.213
85 | CGAGUACAGUGGUUUGUCATT against Orc1 | inactive: 0.858
86 | GGCAAACAUCUGUAUCUAUTT against Golph3 | inactive: -0.571
87 | GGGCACCAUCAACAUGAACTT against Mprip | inactive: 0.435
88 | GCCAACAUGUGUUUGUGUGTT against Krtap9-1 | inactive: 0.821

Row | Sequence | z-score
89 | GGUACCUCUGUAUUCAGCCTT against Olfr121 | inactive: 0.78
90 | GCAGAAAAACAUCCACGACTT against Spn | active: -2.01
91 | GGAGUGAAAUUUCUGUAAUTT against Olfr796 | inactive: 0.256
92 | CCUUUUGAUAGAGAAGAGCTT against Olfr1426 | inactive: 0.131
93 | GGAGGAGCGUACUAUUUAATT against Slc12a2 | active: 3.34
94 | GCAAAACUCAUUGAAAGUGTT against Pramel13 | inactive: -0.619
95 | GCUUAGUUUAUGAGAAUGCTT against Ptprh | inactive: -0.791
96 | GGAAAGAAAUAGUUAAGGGTT against Zfp239 | inactive: 0.455
97 | CGGGAAGAGUAUCACUUACTT against Elac2 | inactive: -1.42
98 | CCGACUCUUGGUGCCAUACTT against Hadh | inactive: 1.28
99 | GCUGUUUCCCAGAGAAGAATT against Defb2 | inactive: -0.814
100 | GGUGGUGUUUCAUAAGAUGTT against Rragc | inactive: -0.0381
101 | GGAGAACUCCAGGUUGGCATT against Eaf1 | active: -2.03
102 | GGAAGUUGGAGAAGCAAAATT against Hepacam | inactive: 0.805
103 | GGACACACAGUAUUGUUUGTT against Lypd6b | inactive: 0.101
104 | GGUCAUUCUCCAAGAACUATT against Ugp2 | inactive: -0.844
105 | GCUUUAACCUGGUUUAGUATT against Magix | inactive: -0.145
106 | GCAAUAGGCCUCUUAAUUATT against Sirt1 | inactive: 0.344
107 | GGUACAACAAAAAUGUGACTT against Vmn1r73 | inactive: -1.39
